Some entries share one result that the patent states for a list of compounds.
target: T1, Ethanthiol-Protein-Komplex (BSA) (Bos taurus, UniProt P02769); test: Screening test of uncouplers, cleavage of the Ethanthiol-protein complex; set-up: species or system Rind; key: Kurventyp A (Fig. 1) zeigt die erwartete Freisetzung von ET nach der Zugabe der Entkopplersubstanz; Kurventyp B (Fig. 2) gibt die Abnahme von ET nach Zugabe des Entkopplers wieder; conditions: 10 to 20 mg substance added after ca. 4 h incubation of ET with BSA
T1 construct: Rinderserumalbumin (BSA, bovine serum albumin); purchased Behring, Marburg

Chains of the proteins cited; added tags and fusions are not shown. Residues count along the entry.
UniProt P02769, 25-607: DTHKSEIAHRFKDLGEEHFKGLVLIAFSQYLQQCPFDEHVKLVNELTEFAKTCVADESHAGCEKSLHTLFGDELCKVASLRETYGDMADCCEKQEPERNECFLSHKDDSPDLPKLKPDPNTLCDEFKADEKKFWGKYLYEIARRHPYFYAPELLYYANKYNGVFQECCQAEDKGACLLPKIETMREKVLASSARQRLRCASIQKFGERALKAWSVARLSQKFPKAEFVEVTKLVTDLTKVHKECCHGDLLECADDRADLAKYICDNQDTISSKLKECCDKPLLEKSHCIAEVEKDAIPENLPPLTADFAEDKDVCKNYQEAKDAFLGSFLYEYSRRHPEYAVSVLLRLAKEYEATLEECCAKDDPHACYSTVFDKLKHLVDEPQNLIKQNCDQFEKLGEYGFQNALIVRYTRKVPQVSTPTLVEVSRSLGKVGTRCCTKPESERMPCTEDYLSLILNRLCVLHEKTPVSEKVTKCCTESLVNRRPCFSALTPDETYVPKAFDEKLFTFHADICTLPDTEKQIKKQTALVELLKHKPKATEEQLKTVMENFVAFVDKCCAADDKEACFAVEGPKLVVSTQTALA

Compound | Kurventyp (Verhalten nach Typ)
O[C@H](CS)[C@H](O)CS (racemic) [Dithiothreitol] | A
Lecithin | B
O=C1O[C@H]([C@@H](O)CO)C(O)=C1O [Ascorbinsäure] | A
CCCCCCCC/C=C\CCCCCCCC(=O)O [Kaliumoleat] | B
N[C@@H](CS)C(=O)O [Cystein] | A
CCCCCCCCCCCCCCCC(=O)OC[C@H](O)[C@H]1OC(=O)C(O)=C1O [Ascorbinpalmitat] | B

— patent EP0102564A2, “Method for the removal of toxins bound to protein or lipid from blood or blood fractions, and use of certain compounds as liberating agents” (FRAUNHOFER-GESELLSCHAFT ZUR FÖRDERUNG DER ANGEWANDTEN …, priority 1982, dated 1984)
